Where two headings read alike, the source gives them in different places. Some entries share one result that the patent states for a list of compounds.
Target: B-Raf (V599E or Wild Type) (Homo sapiens, UniProt P15056)
Test: B-Raf Flash Plate assay
Assay type: biochemical
Conditions: Peptide 118, 0.5 μM ATP, 60 minutes
[1] = read-out: IC50, inhibition of the enzyme in B-Raf Flash Plate assay
[2] = read-out: IC50 in B-Raf Flash Plate assay

Protein sequences, listed by entry. Tags and fused reporters are not part of them.
UniProt P15056, whole entry, stated change not applied: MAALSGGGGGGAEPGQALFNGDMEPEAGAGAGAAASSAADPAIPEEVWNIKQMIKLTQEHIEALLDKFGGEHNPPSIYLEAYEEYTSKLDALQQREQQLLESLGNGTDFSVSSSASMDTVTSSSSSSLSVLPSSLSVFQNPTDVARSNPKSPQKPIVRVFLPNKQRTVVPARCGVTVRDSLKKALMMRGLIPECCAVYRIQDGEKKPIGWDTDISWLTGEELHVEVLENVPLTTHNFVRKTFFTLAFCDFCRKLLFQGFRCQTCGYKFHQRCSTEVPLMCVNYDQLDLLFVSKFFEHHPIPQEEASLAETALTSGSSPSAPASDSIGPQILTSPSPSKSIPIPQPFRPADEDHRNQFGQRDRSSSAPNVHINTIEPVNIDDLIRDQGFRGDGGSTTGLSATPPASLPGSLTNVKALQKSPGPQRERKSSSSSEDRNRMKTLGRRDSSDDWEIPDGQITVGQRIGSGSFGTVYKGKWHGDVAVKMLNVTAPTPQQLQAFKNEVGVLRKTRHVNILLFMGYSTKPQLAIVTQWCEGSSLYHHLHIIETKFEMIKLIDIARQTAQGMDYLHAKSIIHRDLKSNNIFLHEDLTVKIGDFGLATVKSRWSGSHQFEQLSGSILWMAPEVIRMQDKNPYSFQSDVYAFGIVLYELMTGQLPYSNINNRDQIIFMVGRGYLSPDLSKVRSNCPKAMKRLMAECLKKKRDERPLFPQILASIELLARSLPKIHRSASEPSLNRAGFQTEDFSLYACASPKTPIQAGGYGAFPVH

SMILES	IC50 [1] [µM]	IC50 [2] [µM]
CC(=O)Nc1cc(Oc2ccc3c(c2)CC(C(=O)Nc2cc(C(C)(C)N)cc(C(F)(F)F)c2)CC3)ccn1 (stereo not drawn) [Compound I-197, 7-{[2-(acetylamino)pyridin-4-yl]oxy}-N-[3-(1-amino-1-methylethyl)-5-(trifluoromethyl)phenyl]-1,2,3,4-tetrahydronaphthalene-2-carboxamide]	≤ 1	< 0.05
CN1CCN(Cc2c[nH]c(-c3cc(Oc4ccc5ccc(C(=O)Nc6cc(OCCN7CCCC7)cc(C(F)(F)F)c6)cc5c4)ccn3)n2)CC1 [Compound I-339, 7-[(2-{4-[(4-methylpiperazin-1-yl)methyl]-1H-imidazol-2-yl}pyridin-4-yl)oxy]-N-[3-(2-pyrrolidin-1-ylethoxy)-5-(trifluoromethyl)phenyl]-2-naphthamide]	≤ 1	< 0.05
CC(=O)Nc1cc(Oc2ccc3c(c2)CC(C(=O)Nc2ccc(Cl)cc2)CC3)ccn1 (stereo not drawn) [Compound I-303, 7-{[2-(acetylamino)pyridin-4-yl]oxy}-N-(4-chlorophenyl)-1,2,3,4-tetrahydronaphthalene-2-carboxamide]	≤ 1	< 0.05
CC(=O)Nc1cc(Oc2ccc3c(c2)C=C(C(=O)Nc2cccc(C(C)(C)C)c2)CO3)ccn1 [Compound I-91, 6-{[2-(acetylamino)pyridin-4-yl]oxy}-N-(3-tert-butylphenyl)-2H-chromene-3-carboxamide]	≤ 1	< 0.05
CNC(=O)c1cc(Oc2ccc3c(c2)CC(C(=O)Nc2cc(C(F)(F)F)ccc2OCCN2CCCC2)CC3)ccn1 (stereo not drawn) [Compound I-64, N-methyl-4-{[7-({[2-(2-pyrrolidin-1-ylethoxy)-5-(trifluoromethyl)phenyl]amino}carbonyl)-5,6,7,8-tetrahydronaphthalen-2-yl]oxy}pyridine-2-carboxamide]	≤ 1	< 0.05
CC(C)(C)c1cccc(NC(=O)c2ccc3ccc(Oc4ccnc(-c5ncc(CN6CCOCC6)[nH]5)c4)cc3c2)c1 [Compound I-347, N-(3-tert-butylphenyl)-7-({2-[5-(morpholin-4-ylmethyl)-1H-imidazol-2-yl]pyridin-4-yl}oxy)-2-naphthamide]	≤ 1	< 0.05
CC(C)(C)c1cccc(NC(=O)N2CCc3ccc(Oc4ccnc(NC(=O)C5CC5)c4)cc3C2)c1 [Compound I-431, N-(3-tert-butylphenyl)-7-({2-[(cyclopropylcarbonyl)amino]pyridin-4-yl}oxy)-3,4-dihydroisoquinoline-2(1H)-carboxamide]	≤ 1	< 0.05
O=C(Nc1ccc(Cl)c(C(F)(F)F)c1)c1cnc2ccc(Oc3ccnc(C4=NCCN4)c3)cc2c1 [Compound I-30, N-[4-chloro-3-(trifluoromethyl)phenyl]-6-{[2-(4,5-dihydro-1H-imidazol-2-yl)pyridin-4-yl]oxy}quinoline-3-carboxamide]	≤ 1	< 0.05
O=C(Nc1ccc(Cl)c(C(F)(F)F)c1)[C@@H]1CCc2ccc(Oc3ccnc(C4=NCCN4)c3)cc2C1 (single isomer, unassigned) [Compound I-34]	≤ 1	< 0.05
CNC(=O)c1cc(Oc2ccc3c(c2)CC(C(=O)Nc2cc(OCCN(C)C)cc(C(F)(F)F)c2)CC3)ccn1 (stereo not drawn) [Compound I-41, 4-{[7-({[3-[2-(dimethylamino)ethoxy]-5-(trifluoromethyl)phenyl]amino}carbonyl)-5,6,7,8-tetrahydronaphthalen-2-yl]oxy}-N-methylpyridine-2-carboxamide]	≤ 1	–
O=C(Nc1cccc(C(F)(F)F)c1)c1ccc2ccc(Oc3ccnc(C4=NCCN4)c3)cc2c1 [Compound I-53, 7-{[2-(4,5-dihydro-1H-imidazol-2-yl)pyridin-4-yl]oxy}-N-[3-(trifluoromethyl)phenyl]-2-naphthamide]	≤ 1	< 0.05
CC(=O)Nc1cc(Oc2ccc3c(c2)CC(C(=O)Nc2cc(C(F)(F)F)ccc2F)CC3)ccn1 (stereo not drawn) [Compound I-333, 7-{[2-(acetylamino)pyridin-4-yl]oxy}-N-[2-fluoro-5-(trifluoromethyl)phenyl]-1,2,3,4-tetrahydronaphthalene-2-carboxamide]	≤ 1	< 0.05
NCc1cc(NC(=O)C2CCc3ccc(Oc4ccnc(-c5ncc(C(F)(F)F)[nH]5)c4)cc3C2)cc(C(F)(F)F)c1 (stereo not drawn) [Compound I-332, N-[3-(aminomethyl)-5-(trifluoromethyl)phenyl]-7-({2-[5-(trifluoromethyl)-1H-imidazol-2-yl]pyridin-4-yl}oxy)-1,2,3,4-tetrahydronaphthalene-2-carboxamide]	≤ 1	< 0.05
CC(C)(C)c1cccc(NC(=O)C2CCc3ccc(Oc4ccnc(C(=N)N)c4)cc3C2)c1 (stereo not drawn) [Compound I-422, 7-({2-[amino(imino)methyl]pyridin-4-yl}oxy)-N-(3-tert-butylphenyl)-1,2,3,4-tetrahydronaphthalene-2-carboxamide]	≤ 1	< 0.05
CN1CCN(c2cc(Oc3ccc4c(c3)CC(C(=O)Nc3cccc(C(C)(C)C)c3)CC4)ccn2)CC1 (stereo not drawn) [Compound I-415, N-(3-tert-butylphenyl)-7-{[2-(4-methylpiperazin-1-yl)pyridin-4-yl]oxy}-1,2,3,4-tetrahydronaphthalene-2-carboxamide]	≤ 1	–
CC(C)(C)C(=O)Nc1cc(Oc2ccc3c(c2)CC(C(=O)Nc2cc(OCCN4CCCC4)cc(C(F)(F)F)c2)CC3)ccn1 (stereo not drawn) [Compound I-213, 7-({2-[(2,2-dimethylpropanoyl)amino]pyridin-4-yl}oxy)-N-[3-(2-pyrrolidin-1-ylethoxy)-5-(trifluoromethyl)phenyl]-1,2,3,4-tetrahydronaphthalene-2-carboxamide]	≤ 1	< 0.05
CC(C)(C)c1cccc(NC(=O)c2cnc3ccc(Oc4ccnc(-c5nc(CO)c[nH]5)c4)cc3c2)c1 [Compound I-316, N-(3-tert-butylphenyl)-6-({2-[4-(hydroxymethyl)-1H-imidazol-2-yl]pyridin-4-yl}oxy)quinoline-3-carboxamide]	≤ 1	< 0.05
CNC(=O)c1cc(Oc2ccc3c(c2)CC(C(=O)Nc2ccc(Cl)c(C(F)(F)F)c2)CC3)ccn1 (stereo not drawn) [Compound I-24, 4-{[7-({[4-chloro-3-(trifluoromethyl)phenyl]amino}carbonyl)-5,6,7,8-tetrahydronaphthalen-2-yl]oxy}-N-methylpyridine-2-carboxamide]	≤ 1	< 0.05
O=C(Nc1cc(CN2CCCC2)cc(C(F)(F)F)c1)C1=Cc2cc(Oc3ccnc(NC(=O)C4CC4)c3)ccc2OC1 [Compound I-301, 6-({2-[(cyclopropylcarbonyl)amino]pyridin-4-yl}oxy)-N-[3-(pyrrolidin-1-ylmethyl)-5-(trifluoromethyl)phenyl]-2H-chromene-3-carboxamide]	≤ 1	< 0.05
Nc1cc(Oc2ccc3ccc(C(=O)Nc4ccc(Cl)c(C(F)(F)F)c4)cc3c2)ccn1 [Compound I-162, 7-[(2-aminopyridin-4-yl)oxy]-N-[4-chloro-3-(trifluoromethyl)phenyl]-2-naphthamide]	≤ 1	< 0.05
O=C(Nc1cc(CN2CCC(F)C2)cc(C(F)(F)F)c1)C1CCc2ccc(Oc3ccnc(NC(=O)C4CC4)c3)cc2C1 [Compound I-414, 7-({2-[(cyclopropylcarbonyl)amino]pyridin-4-yl}oxy)-N-[3-{[(3S)-3-fluoropyrrolidn-1-yl]methyl}-5-(trifluoromethyl)phenyl]-1,2,3,4-tetrahydronaphthalene-2-carboxamide]	≤ 1	< 0.05
CC(C)(C)c1cccc(NC(=O)C2CCc3ccc(Oc4ccnc(-c5nnn[nH]5)c4)cc3C2)c1 (stereo not drawn) [Compound I-338, N-(3-tert-butylphenyl)-7-{[2-(1H-tetrazol-5-yl)pyridin-4-yl]oxy}-1,2,3,4-tetrahydronaphthalene-2-carboxamide]	≤ 1	< 0.05
NCc1cc(NC(=O)[C@H]2CCc3ccc(Oc4ccnc(NC(=O)C5CC5)c4)cc3C2)cc(C(F)(F)F)c1 [Compound I-386, (2S)-N-[3-(aminomethyl)-5-(trifluoromethyl)phenyl]-7-({2-[(cyclopropylcarbonyl)amino]pyridin-4-yl}oxy)-1,2,3,4-tetrahydronaphthalene-2-carboxamide]	≤ 1	< 0.05
NCc1cc(NC(=O)C2=Cc3cc(Oc4ccnc(NC(=O)C5CC5)c4)ccc3OC2)cc(C(F)(F)F)c1 [Compound I-267, N-[3-(aminomethyl)-5-(trifluoromethyl)phenyl]-6-({2-[(cyclopropylcarbonyl)amino]pyridin-4-yl}oxy)-2H-chromene-3-carboxamide]	≤ 1	< 0.05
CN1CCN(Cc2c[nH]c(-c3cc(Oc4ccc5ncc(C(=O)Nc6cccc(C(C)(C)C)c6)cc5c4)ccn3)n2)CC1 [Compound I-233, N-(3-tert-butylphenyl)-6-[(2-{4-[(4-methylpiperazin-1-yl)methyl]-1H-imidazol-2-yl}pyridin-4-yl)oxy]quinoline-3-carboxamide]	≤ 1	< 0.05
CC(C)(C)c1cc(CN)cc(C(=O)NC2CCc3ccc(Oc4ccnc(NC(=O)C5CC5)c4)cc3C2)c1 (stereo not drawn) [Compound I-425, 3-(aminomethyl)-5-tert-butyl-N-[7-({2-[(cyclopropylcarbonyl)amino]pyridin-4-yl}oxy)-1,2,3,4-tetrahydronaphthalen-2-yl]benzamide]	≤ 1	< 0.05
O=C(Nc1cc(OCCN2CCCC2)cc(C(F)(F)F)c1)c1cnc2ccc(Oc3ccncc3)cc2c1 [Compound I-351, 6-(pyridin-4-yloxy)-N-[3-(2-pyrrolidin-1-ylethoxy)-5-(trifluoromethyl)phenyl]quinoline-3-carboxamide]	≤ 1	< 0.05
NCc1cc(NC(=O)C2CCc3ccc(Oc4ccnc(NC(=O)C5CC5)c4)cc3C2)cc(C(F)(F)F)c1 (stereo not drawn) [Compound I-417, N-[3-(aminomethyl)-5-(trifluoromethyl)phenyl]-7-({2-[(cyclopropylcarbonyl)amino]pyridin-4-yl}oxy)-1,2,3,4-tetrahydronaphthalene-2-carboxamide]	≤ 1	< 0.05
